The record followed here is the supplement of paper PMC8728848.

The other results are listed elsewhere or left out.

Common to all, as to experiment: glycan array binding signal (z-score within array); higher = stronger binding
Settings in all cases: glycan notation: IUPAC condensed, linker removed

The target of assay [1] is GlcNAc(b1-2)[GlcNAc(b1-4)]Man(a1-3)[GlcNAc(b1-4)][GlcNAc(b1-2)[GlcNAc(b1-6)]Man(a1-6)]Man(b1-4)GlcNAc(b1-4)GlcNAc. Put shortly:
(§1)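 Glycan array data were curated from 3228 arrays in the Consortium for Functional Glycomics database and kept only where the protein sequence was available. Glycan names were converted to IUPAC-condensed notation, and columns mapping to the same glycan were averaged. The binding signal is a within-array Z-score, averaged across arrays of the same protein sequence at different concentrations or buffers and across linkers. Negative Z-scores can be read as non-binding.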

Assay [2] has as its target GlcNAc(b1-2)[GlcNAc(b1-4)]Man(a1-3)[GlcNAc(b1-4)][GlcNAc(b1-2)[GlcNAc(b1-6)]Man(a1-6)]Man(b1-4)GlcNAc(b1-4)[Fuc(a1-6)]GlcNAc. Put shortly: as §1
Assay [3] deals with GlcNAc(b1-2)[GlcNAc(b1-6)]Man(a1-6)[GlcNAc(b1-2)Man(a1-3)]Man(b1-4)GlcNAc(b1-4)GlcNAc. The method, boiled down: as §1
Assay [4] deals with GlcNAc(b1-2)[GlcNAc(b1-6)]Man(a1-6)[GlcNAc(b1-2)Man(a1-3)]Man(b1-4)GlcNAc(b1-4)[Fuc(a1-6)]GlcNAc. Put shortly:
as §1

The target in assay [5] is GlcNAc(b1-2)[GlcNAc(b1-6)]Man(a1-6)[GlcNAc(b1-4)][GlcNAc(b1-2)Man(a1-3)]Man(b1-4)GlcNAc(b1-4)GlcNAc. Put shortly:
as §1

Assay [6] concerns the target GlcNAc(b1-3)Fuc. The method, boiled down:
as §1

The target in assay [7] is GlcNAc(b1-3)Gal. Put shortly:
as §1

Assay [8] deals with GlcNAc(b1-3)Gal(b1-3)GalNAc. Put shortly:
as §1

The target of assay [9] is GlcNAc(b1-3)Gal(b1-4)Glc. The method, boiled down: as §1
The target of assay [10] is GlcNAc(b1-3)Gal(b1-4)GlcNAc. Put shortly: as §1
Assay [11] deals with GlcNAc(b1-3)Gal(b1-4)GlcNAc(b1-2)Man(a1-3)[GlcNAc(b1-3)Gal(b1-4)GlcNAc(b1-2)Man(a1-6)]Man(b1-4)GlcNAc(b1-4)GlcNAc. Put shortly:
as §1

Assay [12] addresses GlcNAc(b1-3)Gal(b1-4)GlcNAc(b1-2)Man(a1-3)[GlcNAc(b1-3)Gal(b1-4)GlcNAc(b1-2)Man(a1-6)]Man(b1-4)GlcNAc(b1-4)[Fuc(a1-6)]GlcNAc. The method, boiled down: as §1
Assay [13] concerns the target GlcNAc(b1-3)Gal(b1-4)GlcNAc(b1-2)[GlcNAc(b1-3)Gal(b1-4)GlcNAc(b1-6)]Man(a1-6)[GlcNAc(b1-3)Gal(b1-4)GlcNAc(b1-2)Man(a1-3)]Man(b1-4)GlcNAc(b1-4)GlcNAc. Put shortly: as §1
For assay [14], the target named is GlcNAc(b1-3)Gal(b1-4)GlcNAc(b1-3)Gal(b1-4)GlcNAc. The method, boiled down:
as §1

Assay [15] addresses GlcNAc(b1-3)Gal(b1-4)GlcNAc(b1-3)Gal(b1-4)GlcNAc(b1-2)Man(a1-3)[GlcNAc(b1-3)Gal(b1-4)GlcNAc(b1-3)Gal(b1-4)GlcNAc(b1-2)Man(a1-6)]Man(b1-4)GlcNAc(b1-4)GlcNAc. The method, boiled down:
as §1

The target in assay [16] is GlcNAc(b1-3)Gal(b1-4)GlcNAc(b1-3)Gal(b1-4)GlcNAc(b1-2)Man(a1-3)[GlcNAc(b1-3)Gal(b1-4)GlcNAc(b1-3)Gal(b1-4)GlcNAc(b1-2)Man(a1-6)]Man(b1-4)GlcNAc(b1-4)[Fuc(a1-6)]GlcNAc. Put shortly: as §1
Assay [17] addresses GlcNAc(b1-3)Gal(b1-4)GlcNAc(b1-3)Gal(b1-4)GlcNAc(b1-2)[GlcNAc(b1-3)Gal(b1-4)GlcNAc(b1-3)Gal(b1-4)GlcNAc(b1-6)]Man(a1-6)[GlcNAc(b1-3)Gal(b1-4)GlcNAc(b1-3)Gal(b1-4)GlcNAc(b1-2)Man(a1-3)]Man(b1-4)GlcNAc(b1-4)[Fuc(a1-6)]GlcNAc. The method, boiled down: as §1
The target in assay [18] is GlcNAc(b1-3)Gal(b1-4)GlcNAc(b1-3)Gal(b1-4)GlcNAc(b1-3)Gal(b1-4)GlcNAc(b1-2)Man(a1-3)[GlcNAc(b1-3)Gal(b1-4)GlcNAc(b1-3)Gal(b1-4)GlcNAc(b1-3)Gal(b1-4)GlcNAc(b1-2)Man(a1-6)]Man(b1-4)GlcNAc(b1-4)GlcNAc. The method, boiled down: as §1
In assay [19] the target is GlcNAc(b1-3)Gal(b1-4)GlcNAc(b1-3)Gal(b1-4)GlcNAc(b1-3)Gal(b1-4)GlcNAc(b1-2)Man(a1-3)[GlcNAc(b1-3)Gal(b1-4)GlcNAc(b1-3)Gal(b1-4)GlcNAc(b1-3)Gal(b1-4)GlcNAc(b1-2)Man(a1-6)]Man(b1-4)GlcNAc(b1-4)[Fuc(a1-6)]GlcNAc. Put shortly:
as §1

The target in assay [20] is GlcNAc(b1-3)Gal(b1-4)GlcNAc(b1-3)Gal(b1-4)GlcNAc(b1-3)Gal(b1-4)GlcNAc(b1-2)[GlcNAc(b1-3)Gal(b1-4)GlcNAc(b1-3)Gal(b1-4)GlcNAc(b1-3)Gal(b1-4)GlcNAc(b1-6)]Man(a1-6)[GlcNAc(b1-3)Gal(b1-4)GlcNAc(b1-3)Gal(b1-4)GlcNAc(b1-3)Gal(b1-4)GlcNAc(b1-2)Man(a1-3)]Man(b1-4)GlcNAc(b1-4)[Fuc(a1-6)]GlcNAc. The method, boiled down: as §1
Assay [21] deals with GlcNAc(b1-3)Gal(b1-4)GlcNAc(b1-3)Gal(b1-4)GlcNAc(b1-3)Gal(b1-4)GlcNAc(b1-3)Gal(b1-4)GlcNAc(b1-2)Man(a1-3)[GlcNAc(b1-3)Gal(b1-4)GlcNAc(b1-3)Gal(b1-4)GlcNAc(b1-3)Gal(b1-4)GlcNAc(b1-3)Gal(b1-4)GlcNAc(b1-2)Man(a1-6)]Man(b1-4)GlcNAc(b1-4)GlcNAc. The method, boiled down: as §1
Assay [22] deals with GlcNAc(b1-3)Gal(b1-4)GlcNAc(b1-3)Gal(b1-4)GlcNAc(b1-3)Gal(b1-4)GlcNAc(b1-3)Gal(b1-4)GlcNAc(b1-2)Man(a1-3)[GlcNAc(b1-3)Gal(b1-4)GlcNAc(b1-3)Gal(b1-4)GlcNAc(b1-3)Gal(b1-4)GlcNAc(b1-3)Gal(b1-4)GlcNAc(b1-2)Man(a1-6)]Man(b1-4)GlcNAc(b1-4)[Fuc(a1-6)]GlcNAc. The method, boiled down: as §1
For assay [23], the target named is GlcNAc(b1-3)Gal(b1-4)GlcNAc(b1-3)Gal(b1-4)GlcNAc(b1-3)Gal(b1-4)GlcNAc(b1-3)Gal(b1-4)GlcNAc(b1-2)[GlcNAc(b1-3)Gal(b1-4)GlcNAc(b1-3)Gal(b1-4)GlcNAc(b1-3)Gal(b1-4)GlcNAc(b1-3)Gal(b1-4)GlcNAc(b1-6)]Man(a1-6)[GlcNAc(b1-3)Gal(b1-4)GlcNAc(b1-3)Gal(b1-4)GlcNAc(b1-3)Gal(b1-4)GlcNAc(b1-3)Gal(b1-4)GlcNAc(b1-2)Man(a1-3)]Man(b1-4)GlcNAc(b1-4)[Fuc(a1-6)]GlcNAc. Put shortly:
as §1

B1: Thrombomodulin Lectin (Mus musculus) (protein)
chain: LSALAKLQPTGSQCVEHECFALFQGPATFLDASQACQRLQGHLMTVRSSVAADVISLLLSQSSMDLGPWIGLQLPQGCDDPVHLGPLRGFQWVTGDNHTSYSRWARPNDQTAPLCGPLCVTVSTATEAAPGEPAWEEKPCETETQGFLCEFYFTASCRVDPIPVREDTKEEEGAGEPPVSPTPGSPTGPPSARPVLDEPRVPITQNPCPPLKECPPCAAPDLEGGPSVFIFPPKIKDVLMISLSPMVTCVVVDVSEDDPDVQISWFVNNVEVHTAQTQTHREDYNSTLRVVSALPIQHQDWMSGKAFACAVNNRALPSPIEKTISKPRGPVRAPQVYVLPPPAEEMTKKEFSLTCMITGFLPAEIAVDWTSNGRTEQNYKNTATVLDSDGSYFMYSKLRVQKSTWERGSLFACSVVHEGLHNHLTTKTISRSLGK
On to B1, for which the “glycan array binding signal (z-score)” value in [1] was -0.06; in [2], 0.208; in [3], -0.201; in assay [4] it was -0.017; in assay [5], -1.3; in [6], 0.309. For the same molecule, the “glycan array binding signal (z-score)” value in [7] is 1.25; in [8], 0.666; in assay [9], -0.433; in assay [10], -0.204; in [11], -0.235; in assay [12], -0.564. The “glycan array binding signal (z-score)” value in assay [13] is -1.48; in assay [14], -0.268; in [15] it was 1.08; in assay [16], -1.57; in [17] it was 2.07; in assay [18], 0.214. Moreover, the “glycan array binding signal (z-score)” value in assay [19] was 0.764; in [20] it was 0.558; in assay [21] it was 0.151; in assay [22], 1.05; in assay [23] it was 0.746.
